# According to patent US11819526B2, “Lactobacillus Gasseri KBL697 strain and use thereof” (KoBioLabs, Inc., priority 2018, dated 2023):
# At least one structure is not confirmed: it was looked up by name or label, or the drawing left a doubt.
# System: Balb/c mouse models with imiquimod-induced psoriasis
# Test: Imiquimod-induced psoriasis in Balb/c mice
# Assay type: in vivo
# Conditions: KBL697 1×10^9 CFU/0.2 mL oral daily, dexamethasone 200 μL of 0.25 mg/mL daily; vs control group (NC); FIGS. 16A-E
compound,measurement,value
C[C@@H]1C[C@H]2[C@@H]3CCC4=CC(=O)C=C[C@]4(C)[C@@]3(F)[C@@H](O)C[C@]2(C)[C@@]1(O)C(=O)CO [dexamethasone],PASI (psoriasis area and severity index),significantly reduced
